Measurements published in PMC7861556.
These are yes or no findings as the source states them, for the method shown. In cells and extracts the contact can be indirect. Some entries that bind do so weakly or less than the wild type.

Amino acid sequences for entries named in this document (tags omitted).
UniProt Q8CIN4: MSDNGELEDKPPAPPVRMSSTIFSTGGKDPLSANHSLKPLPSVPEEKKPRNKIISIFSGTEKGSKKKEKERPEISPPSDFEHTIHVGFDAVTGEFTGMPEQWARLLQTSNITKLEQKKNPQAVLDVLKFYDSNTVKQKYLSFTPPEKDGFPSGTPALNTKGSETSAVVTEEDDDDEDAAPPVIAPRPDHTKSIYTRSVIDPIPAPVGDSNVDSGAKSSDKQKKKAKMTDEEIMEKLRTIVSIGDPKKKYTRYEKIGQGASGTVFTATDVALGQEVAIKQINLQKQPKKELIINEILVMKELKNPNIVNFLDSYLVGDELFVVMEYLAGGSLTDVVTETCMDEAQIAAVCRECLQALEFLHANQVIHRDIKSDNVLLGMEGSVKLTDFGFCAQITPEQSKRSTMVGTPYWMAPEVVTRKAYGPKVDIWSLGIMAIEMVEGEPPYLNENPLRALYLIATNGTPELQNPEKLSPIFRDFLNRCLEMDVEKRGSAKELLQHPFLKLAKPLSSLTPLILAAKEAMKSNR

Biological target: Serine/threonine-protein kinase PAK2 (mouse (endogenous in Neuro2A)) (UniProt Q8CIN4)
Experiment: co-IP; PAK2 immunoprecipitated with anti-PAK2 antibody-conjugated beads from lysates of Neuro2A cells treated without or with PQA-18 in the absence or presence of anti-IL-31Rα antibody; blotted with anti-α-PIX and anti-PAK2 antibodies

B1: Rho guanine nucleotide exchange factor 6 α-PIX (protein, UniProt Q8K4I3 1-771)
chain: MNPEERLVTWLISLGVLESPKKTVCDPEEFLKSSLKNGVVLCKLINRLLPGSVEKYCLEPQTEADCIDNINDFLKGCATLQVEVFEPDDLYSGANFSKVLNTLLAVNKATEDQLSERPCGRSSSLSAATSSQTNPQVAVPSTAPEQHSEEKAEMTENGSHQLIVKARFNFKQTNEDELSVCKGDIIYVTRVEEGGWWEGTLNGRTGWFPSNYVREIKPSERPLSPKAIKGFDTAPLTKNYYTVVLQNILDTEKEYAKELQSLLVTYLRPLQSNNNLSTVEFTCLLGNFEEVCTFQQTLCQALEECSKFPENQHKVGGCLLNLMPHFKSMYLAYCANHPSAVNVLTQHSDDLERFMENQGASSPGILILTTSLSKPFMRLEKYVTLLQELERHMEDTHPDHQDILKAIIAFKTLMGQCQDLRKRKQLELQILSEPIQAWEGDDIKTLGNVIFMSQVVMQHGACEEKEERYFLLFSSVLIMLSASPRMSGFMYQGKIPIAGMVVNRLDEIEGSDCMFEITGSTVERIVVHCNNNQDFQEWMEQLNRLTKGPTSCGSLSKTSSSSCSTHSSFSSTGQPRGPLEPPQIIKPWSLSCLRPAPPLRPSAALGYKERMSYILKESSKSPKTMKKFLHKRKTERKASEEEYVIRKSTAALEEDAQILKVIEAYCTSASFQQGTRKDSVPQVLLPEEEKLIIEETRSNGQTIIEEKSLVDTVYALKDEVKELKQENKKMKQCLEEELKSRKDLEKLVRKLLKQTDECIRSESSSKTSILQ
For B1, the binding was “binds”.
